Here are results for four sequences from patent publication US20170275629.

Amino acid sequences for entries named in this document (tags omitted). Residues count along the entry.
UniProt Q99JW5, 24-315: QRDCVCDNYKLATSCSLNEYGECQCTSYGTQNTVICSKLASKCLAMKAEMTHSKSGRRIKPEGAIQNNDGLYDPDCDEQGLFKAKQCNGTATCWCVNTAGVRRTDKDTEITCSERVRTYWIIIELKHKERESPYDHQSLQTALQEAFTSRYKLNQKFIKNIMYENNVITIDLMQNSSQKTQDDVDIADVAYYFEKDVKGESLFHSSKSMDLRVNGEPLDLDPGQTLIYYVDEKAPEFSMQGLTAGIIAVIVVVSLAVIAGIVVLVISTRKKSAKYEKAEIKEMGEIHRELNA
UniProt P16422, 24-314: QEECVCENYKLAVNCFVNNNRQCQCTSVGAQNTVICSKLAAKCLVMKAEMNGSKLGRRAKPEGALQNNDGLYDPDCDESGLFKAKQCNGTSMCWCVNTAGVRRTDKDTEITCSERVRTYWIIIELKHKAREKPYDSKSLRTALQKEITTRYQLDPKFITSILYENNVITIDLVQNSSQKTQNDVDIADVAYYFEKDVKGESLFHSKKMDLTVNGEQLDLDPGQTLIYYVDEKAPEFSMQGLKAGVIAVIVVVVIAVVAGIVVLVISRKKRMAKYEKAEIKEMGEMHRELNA

In data set [1] the target is EpCAM (ESA/mCD326) (Mus musculus) (UniProt Q99JW5). The data set is described as follows: flow cytometry. To be noted: 2'-F pyrimidines; not taken up by EpCAM-high mouse 4T1 cells nor by 67NR; protein on the cell surface; protein details: endogenous on 4T1 cells; label: 5'-Cy3 in uptake assays.
Data set [2] has as its target EpCAM (CD326/ESA) (Homo sapiens) (UniProt P16422). The experiment in a line: binding assay. As to conditions: 2'-F pyrimidines; CITED Shigdar et al. 2011; label: 5'-Cy3 in uptake assays.
Data set [3] has the same target. The experiment in a line: flow cytometry. To be noted: 2'-F pyrimidines; 3'-dTdT; 24 h uptake by EpCAM+ BPLER and MB468, not by EpCAM- BPE; protein on the cell surface; label: Alexa647 or Cy3 at 3' end of antisense strand; variant of EpCAM aptamer (19 nt).
For data set [4] the target is unchanged. The experiment in a line: activity in cells. As to conditions: 2'-F pyrimidines, 3'-dTdT, correlates with EpCAM level, protein on the cell surface, variant of EpCAM aptamer (19 nt), dose not given here.

pKd: −log10 of the molar value. For some assays here: At least one result comes from cells or an extract, where the contact may be indirect. For some assays here: No signal at the amounts used counts as a negative. For some assays here: For at least one entry, the source does not settle the construct or the ends of the probe.

As to “GCGACUGGUUACCCGGUCG [EpCAM aptamer (19 nt)]”, the binding result in data set [1] is “no binding”. Moreover, the pKd (in general, the Kd on a negative log10 scale, so that one unit is a factor of ten) in data set [2] was 7.92.

For “GCGACUGGUUACCCGGUCGUUUGGCUACGUCCAGGAGCGCATT / UGCGCUCCUGGACGUAGCCTT [GFP EpCAM-AsiC]”, the binding result in data set [3] is “binds”.

Consider “GCGACUGGUUACCCGGUCGUUUUGAAGAAGAUCACCCUCCUUATT / UAAGGAGGGUGAUCUUCUUCATT [PLK1 EpCAM-AsiC]”, for which the “functional effect of the aptamer” value in data set [4] (reduced proliferation of EpCAM+ basal-A/luminal lines only) was “active”.

Turning to “GCGACUGGUUACCCGGUCGUUGCUGGAGAACCUCAUGCUGTT / CAGCAUGAGGUUCUCCAGCTT [AKT1 EpCAM-AsiC]”, the “functional effect of the aptamer” value in data set [4] (AKT1 knockdown only in EpCAM-bright lines) was “active”.
